According to patent US8580785B2, “Insecticides” (Syngenta Crop Protection LLC, priority 2005, dated 2013):
Some entries share one result that the patent states for a list of compounds. For part of these data: At least one structure is not confirmed: it was looked up by name or label, or the drawing left a doubt.

Legend:
Assay type in all cases: in vivo
[1] = test system: Spodoptera littoralis; assay: Activity against Spodoptera littoralis; settings: 400 ppm spray on young soya plants; 1st instar caterpillars; 3 days
Procedure: (§1) Young soya plants are sprayed with an aqueous emulsion spray mixture comprising 400 ppm of active ingredient and, after the spray coating has dried on, populated with 10 caterpillars (1st instar) of Spodoptera littoralis and introduced into a plastic container. 3 days later, the percentage reduction in the population and in the feeding damage (% activity) are determined by comparing the number of dead caterpillars and the feeding damage between the treated and untreated plants.

[2] = test system: Plutella xylostella; assay: Activity against Plutella xylostella; settings: 400 ppm spray on young cabbage plants; 3rd instar caterpillars; 3 days
Procedure: as §1, with “cabbage” for “soya”, “(3rd” for “(1st”, “Plutella xylostella” for “Spodoptera littoralis”

[3] = test system: Diabrotica balteata; assay: Activity against Diabrotica balteata (sprayed maize seedlings); settings: 400 ppm spray on maize seedlings; 2nd instar larvae; 6 days
Procedure: Maize seedlings are sprayed with an aqueous emulsion spray mixture comprising 400 ppm of active ingredient and, after the spray coating has dried on, populated with 10 larvae (2nd instar) of Diabrotica balteata and introduced into a plastic container. 6 days later, the percentage reduction in the population (% activity) is determined by comparing the number of dead larvae between the treated and untreated plants.

[4] = test system: Heliothis virescens eggs; assay: Activity against Heliothis virescens (application to eggs); settings: 400 ppm spray on eggs deposited on cotton; 8 days
[5] = test system: Spodoptera littoralis; assay: Systemic insecticide test for Spodoptera littoralis (cotton leafworm); settings: 12.5 ppm in water of maize seedlings, six days uptake; 1st instar larvae on cut leaves, four days; one replicate

| SMILES | percentage reduction in the population and in the feeding damage (% activity) [1] | percentage reduction in the population and in the feeding damage (% activity) [2] | percentage reduction in the population (% activity) [3] | percentage hatching rate of the eggs and survival rate of the caterpillars (% activity) [4] | percentage of dead (activity) [5] |
| --- | --- | --- | --- | --- | --- |
| CCNC(=O)c1cc2nc(C(F)(F)F)ccc2c(OC)c1NC(=O)c1cc(C(F)(F)F)nn1-c1ncccc1Cl [Compound T8.1.122] | over 80% | over 80% | – | – | – |
| COc1c(NC(=O)c2cc(C(F)(F)F)nn2-c2ncccc2Cl)c(C(=O)NC(C)C)cc2nc(C(F)(F)F)ccc12 [Compound T8.1.123] | – | over 80% | over 80% | – | – |
| COC1=NC2C=C(C(=O)NCC3CC3)C(NC(=O)c3cc(C(F)(F)F)nn3-c3ncccc3Cl)=C(Cl)C2S1 (stereo not drawn) [Compound T115.1.14, 7-chloro-6-{[2-(3-chloro-pyridin-2-yl)-5-trifluoromethyl-2H-pyrazole-3-carbonyl]-amino}-2-methoxy-3a,7a-dihydro-benzothiazole-5-carboxylic acid cyclopropylmethyl-amide] | – | – | – | over 80% | over 80% |
